Laboratory results as given in EP4389751A1, “HETEROCYCLIC COMPOUNDS AND USES THEREOF” (Kumquat Biosciences Inc., priority 2021, dated 2024).
Some of these results come from one statement about several compounds together. For at least one compound, name, drawing or mass did not settle the structure.

Molecular target: T1, KRAS protein (His-tagged GDP-loaded G12D 1-169) (Homo sapiens, UniProt P01116, G12D)
T1 construct: His-tagged GDP-loaded G12D 1-169
Test: Covalent modification of KRAS protein, intact-protein LC-MS
Assay type: binding
Settings: assayed under comparable conditions as K-Ras G12S
Description: Test compounds are prepared as 10 mM stock solutions in DMSO (Fisher cat#BP231-100). KRAS protein (His-tagged GDP-loaded wildtype 1-169, His-tagged GDP-loaded G12S 1-169 or His-tagged GDP-loaded G12D 1-169) is diluted to ~2 µM in appropriate buffer (e.g., a Hepes buffer at physiological conditions). For testing KRAS modification, compounds are diluted to 50X final test concentration in DMSO in 96-well storage plates. 2 µl of the diluted 50X compounds are added to appropriate wells in the PCR plate (Fisher cat#AB-0800). […] of the stock protein solution is added to each well of the 96-well PCR plate. Reactions are mixed carefully. The plate is sealed well with aluminum plate seal, and stored in drawer at room temperature for 24hrs. 5 µl of 2% formic acid (Fisher cat#A1 17-50) in MilliQ H2O is then added to each well followed by mixing with a pipette. The plate is then resealed with aluminum seal and stored until mass spectrometry analysis.
The extent of covalent modification of KRAS proteins was determined by liquid chromatography electrospray mass spectrometry analysis of the intact proteins on a Thermo Q-Exactive Plus mass spectrometer. 20 µl of sample was injected onto a bioZen 3.6 µm Intact C4 column (Phenomenex cat#00B-4767-AN) placed in a column oven set to 40°C and separated using a suitable LC gradient from -20% to ~60% solvent B. Solvent A was 0.1% formic acid and solvent B was 0.1% formic acid in acetonitrile. HESI source settings were set to 40, 5 and 1 for the sheath, auxiliary and sweep gas flow, respectively. The spray voltage was 4 kV, and the capillary temperature was 320°C. S-lens RF level was 50 and auxiliary gas heater temperature was set to 200°C. The mass spectrometry was acquired using a scan range from 650 to 1750 m/z using positive polarity at a mass resolution of 70,000, AGC target of 1e6 ions and maximum injection time of 250ms. The recorded protein mass spectrum was deconvoluted from the raw data file using Protein Deconvolution v4.0 (Thermo). The protein mass and adduct masses were exported with their peak intensities. The peak intensities for the unmodified and modified protein were used to calculate the percent covalent modification of the KRAS protein based on the following equation: %KRAS protein modification = ((KRAS-compound) / (KRAS) + (KRAS-Compound)) *100.

| Structure (SMILES) | labeling of K-Ras G12D |
| --- | --- |
| CN1CCC[C@H]1COc1nc(N2CCOC3(CN(C(=O)n4cncn4)C3)C2)c2cc(Cl)c(-c3ccc(F)c4sc(N)c(C#N)c34)c(F)c2n1 [Compound A137, 4-(4-(2-(1H-1,2,4-triazole-1-carbonyl)-5-oxa-2,8-diazaspiro[3.5]nonan-8-yl)-6-chloro-8-fluoro-2-(((S)-1-methylpyrrolidin-2-yl)methoxy)quinazolin-7-yl)-2-amino-7-fluorobenzo[b]thiophene-3-carbonitrile] | essentially no detectable labeling |
| CC(=O)c1c(F)ccc2cc(O)cc(-c3ccc4c(N5CCCC6(CN(C(=O)n7cncn7)C6)C5)nc(OC[C@@]56CCCN5C[C@H](F)C6)nc4c3F)c12 [Compound A154, 1-(8-(4-(2-(1H-1,2,4-triazole-1-carbonyl)-2,6-diazaspiro[3.5]nonan-6-yl)-8-fluoro-2-(((2R,7aS)-2-fluorotetrahydro-1H-pyrrolizin-7a(5H)-yl)methoxy)quinazolin-7-yl)-2-fluoro-6-hydroxynaphthalen-1-yl)ethan-1-one] | essentially no detectable labeling |
| N#Cc1c(N)sc2c(F)ccc(-c3ncc4c(N5CC6CCC(C5)N6C(=O)n5ccnc5C#N)nc(OC[C@@]56CCCN5C[C@H](F)C6)nc4c3F)c12 [Compound A165, 1-(3-(7-(2-amino-3-cyano-7-fluorobenzo[b]thiophen-4-yl)-8-fluoro-2-(((2R,7aS)-2-fluorotetrahydro-1H-pyrrolizin-7a(5H)-yl)methoxy)pyrido[4,3-d]pyrimidin-4-yl)-3,8-diazabicyclo[3.2. 1]octane-8-carbonyl)-1H-imidazole-2-carbonitrile] | essentially no detectable labeling |
| CN1CCC[C@H]1COc1nc(N2CCOC3(CN(C(=O)n4cncn4)C3)C2)c2cc(Cl)c(-c3ccc(F)c4sc(N)c(C#N)c34)c(F)c2n1 [Compound A182, 4-(4-(2-(1H-1,2,4-triazole-1-carbonyl)-5-oxa-2,8-diazaspiro[3.5]nonan-8-yl)-6-chloro-8-fluoro-2-(((S)-1-methylpyrrolidin-2-yl)methoxy)quinazolin-7-yl)-2-amino-7-fluorobenzo[b]thiophene-3-carbonitrile] | essentially no detectable labeling |
| N#Cc1c(N)sc2c(F)ccc(-c3c(Cl)cc4c(N5CC6CCC(C5)N6C(=O)n5ncnc5Cl)nc(OC[C@@]56CCCN5C[C@H](F)C6)nc4c3F)c12 [Compound A194] | essentially no detectable labeling |
| Nc1nc2c(-c3c(Cl)cc4c(N5CCC56CCCN(C(=O)n5cncn5)C6)nc(OCC56CCCN5CC(F)C6)nc4c3F)ccc(F)c2s1 (stereo not drawn) [Compound A197, (1-(7-(2-amino-7-fluorobenzo[d]thiazol-4-yl)-6-chloro-8-fluoro-2-((2-fluorotetrahydro-1H-pyrrolizin-7a(5H)-yl)methoxy)quinazolin-4-yl)-1,6-diazaspiro[3.5]nonan-6-yl)(1H-1,2,4-triazol-1-yl)methanone] | essentially no detectable labeling |

Results, then the molecule that gave them:

| labeling of K-Ras G12D | Structure (SMILES) |
| --- | --- |
| essentially no detectable labeling | N#Cc1c(N)sc2c(F)ccc(-c3ncc4c(N5CCCC6(CN(C(=O)n7cncn7)C6)C5)nc(OC[C@@]56CCCN5C[C@H](F)C6)nc4c3F)c12 [Compound A134, 4-(4-(2-(1H-1,2,4-triazole-1-carbonyl)-2,6-diazaspiro[3.5]nonan-6-yl)-8-fluoro-2-(((2R,7aS)-2-fluorotetrahydro-1H-pyrrolizin-7a(5H)-yl)methoxy)pyrido[4,3-d]pyrimidin-7-yl)-2-amino-7-fluorobenzo[b]thiophene-3-carbonitrile] |
| essentially no detectable labeling | Cc1ncn(C(=O)N2CC3(C2)CN(c2nc(OC[C@@]45CCCN4C[C@H](F)C5)nc4c(F)c(-c5ccc(F)c6sc(N)c(C#N)c56)c(Cl)cc24)CCO3)n1 [Compound A148, 2-amino-4-(6-chloro-8-fluoro-2-(((2R,7aS)-2-fluorotetrahydro-1H-pyrrolizin-7 a(5H)-yl)methoxy)-4-(2-(3-methyl-1H-1,2,4-triazole-1-carbonyl)-5-oxa-2,8-diazaspiro[3.5]nonan-8-yl)quinazolin-7-yl)-7-fluorobenzo[b]thiophene-3-carbonitrile] |
| essentially no detectable labeling | N#Cc1c(N)sc2c(F)ccc(-c3ncc4c(N5CCOC6(CN(C(=O)n7cncn7)C6)C5)nc(OC[C@@]56CCCN5C[C@H](F)C6)nc4c3F)c12 [Compound A161, 4-(4-(2-(1H-1,2,4-triazole-1-carbonyl)-5-oxa-2,8-diazaspiro[3.5]nonan-8-yl)-8-fluoro-2-(((2R,7aS)-2-fluorotetrahydro-1H-pyrrolizin-7a(5H)-yl)methoxy)pyrido[4,3-d]pyrimidin-7-yl)-2-amino-7-fluorobenzo[b]thiophene-3-carbonitrile] |
| essentially no detectable labeling | N#Cc1c(N)sc2c(F)ccc(-c3c(Cl)cc4c(N5CCOC6(CN(C(=O)n7cncn7)C6)C5)nc(OC[C@@]56CCCN5C[C@H](F)C6)nc4c3F)c12 [Compound A162, 4-(4-(2-(1H-1,2,4-triazole-1-carbonyl)-5-oxa-2,8-diazaspiro[3.5]nonan-8-yl)-6-chloro-8-fluoro-2-(((2R,7aS)-2-fluorotetrahydro-1H-pyrrolizin-7a(5H)-yl)methoxy)quinazolin-7-yl)-2-amino-7-fluorobenzo[b]thiophene-3-carbonitrile] |
| essentially no detectable labeling | N#Cc1c(N)sc2c(F)ccc(-c3c(Cl)cc4c(OC5CCCCN(C(=O)n6cncn6)C5)nc(OC[C@@]56CCCN5C[C@H](F)C6)nc4c3F)c12 (stereo partly drawn) [Compound A169, 4-(4-((1-(1H-1,2,4-triazole-1-carbonyl)azepan-3-yl)oxy)-6-chloro-8-fluoro-2-(((2R,7aS)-2-fluorotetrahydro-1H-pyrrolizin-7a(5H)-yl)methoxy)quinazolin-7-yl)-2-amino-7-fluorobenzo[b]thiophene-3-carbonitrile] |
| essentially no detectable labeling | Cc1nc(C)n(C(=O)N2CC3(COCCN(c4nc(OC[C@@]56CCCN5C[C@H](F)C6)nc5c(F)c(-c6ccc(F)c7sc(N)c(C#N)c67)c(Cl)cc45)C3)C2)n1 [Compound A185, 2-amino-4-(6-chloro-4-(2-(3,5-dimethyl-1H-1,2,4-triazole-1-carbonyl)-6-oxa-2,9-diazaspiro[3.6]decan-9-yl)-8-fluoro-2-(((2R,7aS)-2-fluorotetrahydro-1H-pyrrolizin-7a(5H)-yl)methoxy)quinazolin-7-yl)-7-fluorobenzo[b]thiophene-3-carbonitrile] |
| essentially no detectable labeling | N#Cc1c(N)sc2c(F)ccc(-c3c(Cl)cc4c(N5CCOC6(CN(C(=O)n7ccnn7)C6)C5)nc(OC[C@@]56CCCN5C[C@H](F)C6)nc4c3F)c12 [Compound A195, 4-(4-(2-(1H-1,2,3-triazole-1-carbonyl)-5-oxa-2,8-diazaspiro[3.5]nonan-8-yl)-6-chloro-8-fluoro-2-(((2R,7aS)-2-fluorotetrahydro-1H-pyrrolizin-7a(5H)-yl)methoxy)quinazolin-7-yl)-2-amino-7-fluorobenzo[b]thiophene-3-carbonitrile] |
| essentially no detectable labeling | N#Cc1c(N)sc2c(F)ccc(-c3c(Cl)cc4c(N5CC(F)(F)C6(CN(C(=O)n7cncn7)C6)C5)nc(OC[C@@]56CCCN5C[C@H](F)C6)nc4c3F)c12 [Compound A199, 2-amino-4-(6-chloro-4-(8,8-difluoro-2-(1H-1,2,4-triazole-1-carbonyl)-2,6-diazaspiro[3.4]octan-6-yl)-8-fluoro-2-(((2R,7aS)-2-fluorotetrahydro-1H-pyrrolizin-7a(5H)-yl)methoxy)quinazolm-7-yl)-7-fluorobenzo[b]thiophene-3-carbonitrile] |
| essentially no detectable labeling | Nc1nc2c(-c3c(Cl)cc4c(N5CCC6(CN(C(=O)n7cncn7)CCO6)C5)nc(OC[C@@]56CCCN5C[C@H](F)C6)nc4c3F)ccc(F)c2s1 (stereo partly drawn) [Compound A202, (2-(7-(2-amino-7-fluorobenzo[d]thiazol-4-yl)-6-chloro-8-fluoro-2-(((2R,7aS)-2-fluorotetrahydro-1H-pyrrolizin-7a(5H)-yl)methoxy)quinazolm-4-yl)-6-oxa-2,9-diazaspiro[4.5]decan-9-yl)(1H-1,2,4-triazol-1-yl)methanone] |
